# Laboratory results taken from PubChem BioAssay AID1347076 (National Center for Advancing Translational Sciences (NCATS), 2019).
# Screen size: about 400,000 compounds; about 13,000 (3.2%) were called active. The inconclusive results got no clear call from the source; some entries with a clear call stand among them for comparison. Calls come from the whole dose curve; as a rule, active = well fitted cell-killing curve with a large enough effect; inconclusive = small, poorly fitted or top-dose-only effect, or effect the other way; inactive = flat fitted curve, though single readings scatter. Potencies of inconclusive entries are doubtful fits and often do not repeat.
# Assay: qHTS assay for MDR1-selective chemotherapeutics: Primary screen using the drug-selected MDR subline cells KB-V1; note: nearly all actives have a fitted effect of over 60% in size
# Details: KB-V1 MDR cells viability, CellTiter-Glo, 72 h; activity change, negative = cytotoxicity: at 46.1 µM (top of the series)
# In short: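 KB-V1, DMEM (no phenol red) + 10% FBS; cpd pin-transferred, titration series; 72 h, 37 degrees C; CellTiter-Glo, luminescence. Data normalized, curve-fit.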
# % is set by controls: 0 for no effect and ±100 for the full control effect; potency is the fitted concentration of half-maximal effect.
Structure (SMILES),Potency,"activity change, negative = cytotoxicity"
COc1ccc(O)c(C(=O)c2cc(C#N)c(=O)n(Cc3ccccc3)c2)c1,"inconclusive: 7.31 µM [cytotoxic, partial curve]",
C=CCOC(=O)/C(=C\c1ccccc1)NC(=O)c1ccco1,"inconclusive: 23.1 µM [cytotoxic, single point]",
COC(=O)c1scc(S(=O)(=O)C(C)(C)C)c1N,"inconclusive: 29.1 µM [rising, single point]",
COc1cc(S(=O)(=O)NCCc2ccc3c(c2)OCO3)ccc1-n1cnnn1,"inconclusive: 32.6 µM [cytotoxic, single point]",
O=C(CN1C(=O)CC(c2ccco2)Sc2ccccc21)Nc1ccc(C(F)(F)F)cc1 (stereo not drawn),"inconclusive: 5.17 µM [cytotoxic, full curve]",
CCNC(=S)NNC(=O)c1cc(-c2cccc(C)c2)nc2ccccc12,"inconclusive: 18.4 µM [cytotoxic, single point]",
O=C(Nc1cccc(Cl)c1)N1CCC(CN2CCOCC2)CC1,,inactive: 12.3%
C=CCn1nc(-c2ccccc2)c(N2CCCCC2)cc1=O,"inconclusive: 25.9 µM [cytotoxic, single point]",
O=C(Cn1cnc2c(oc3ccccc32)c1=O)Nc1ccc(OC(F)(F)F)cc1,"inconclusive: 29.1 µM [rising, single point]",
COc1ccc(S(=O)(=O)NCC2CCCN(Cc3ccccc3Cl)C2)cc1 (stereo not drawn),,inactive: 4.22%
Cc1cc(C(=O)NC2CCCN(Cc3ccc(Cl)cc3)C2)c(C)o1 (stereo not drawn),"inconclusive: 8.2 µM [cytotoxic, partial curve]",
O=C1/C(=C\c2ccccc2)CN(C(=O)CCN2CCCCC2)C/C1=C/c1ccccc1,"inconclusive: 2.59 µM [cytotoxic, full curve, poor fit]",
CC[C@@]12C(=O)N(c3cccc(F)c3)C(=O)N1[C@H](c1ccc(OC)cc1)[C@@H]1C(=O)N(C(C)(C)C)C(=O)[C@@H]12,"inconclusive: 29.1 µM [rising, single point]",
COC(=O)CN1C(c2ccc(OC)cc2)=Nc2ccc(Cl)cc2C1c1ccccc1 (stereo not drawn),"inconclusive: 14.6 µM [cytotoxic, partial curve, poor fit]",
CCOc1ccccc1N1CC(C(=O)Nc2ccccc2CC)CC1=O (stereo not drawn),"inconclusive: 0.0082 µM [cytotoxic, full curve]",
O=C(NCCCn1ccnc1)/C(=C/c1cccs1)NC(=O)c1ccco1,"inconclusive: 23.1 µM [rising, single point]",
C=CCn1c(SCC(=O)N2CCOCC2)nc2sc(C)c(C)c2c1=O,,inactive: -16%
CC(C)(C)c1ccc(S(=O)(=O)c2cn(CC(=O)Nc3ccccc3)c3ccccc3c2=O)cc1,,inactive: -11.4%
O=C(NC1CCN(S(=O)(=O)c2ccc(F)cc2)CC1)c1ccccc1,"inconclusive: 20.6 µM [rising, single point]",
Cc1ccccc1-n1c(C)cc(/C=N/Nc2ccc([N+](=O)[O-])cn2)c1C,,inactive: 0%
COc1cc(SC)ccc1C(=O)Nc1ccccc1,"inconclusive: 20.6 µM [cytotoxic, single point]",
CCn1c(SCc2ccc(F)cc2Cl)nnc1-c1nonc1NC(C)=O,,inactive: 10.4%
CCOc1ccccc1N(CC(=O)N1CCC(C)CC1)S(=O)(=O)c1ccc(C)cc1,"inconclusive: 20.6 µM [cytotoxic, partial curve, poor fit]",

# Some of the entries so far, tab-delimited:
Structure (SMILES)	Potency	activity change, negative = cytotoxicity
O=C1/C(=C\c2ccccc2)CN(C(=O)CCN2CCCCC2)C/C1=C/c1ccccc1	inconclusive: 2.59 µM [cytotoxic, full curve, poor fit]	
CC[C@@]12C(=O)N(c3cccc(F)c3)C(=O)N1[C@H](c1ccc(OC)cc1)[C@@H]1C(=O)N(C(C)(C)C)C(=O)[C@@H]12	inconclusive: 29.1 µM [rising, single point]	

# Remaining list, next part.

Structure (SMILES),Potency,"activity change, negative = cytotoxicity"
Cc1ccc(-c2csc3ncn(Cc4ccc(C(=O)O)cc4)c(=O)c23)cc1C,"inconclusive: 29.1 µM [rising, single point]",
CN(c1ccccc1)S(=O)(=O)c1cccc(NC(=O)CSc2nnc(N)s2)c1,"inconclusive: 32.6 µM [cytotoxic, single point]",
CNc1cc(-c2cnn(CC(C)C)c2)ncn1,,inactive: 3.12%
CN1CC(=O)N(CC(=O)NC2CCCCC2)C1=O,,inactive: 4.99%
O=c1[nH][nH]c(-c2ccccc2)c1C=Nc1ccc(Cl)cc1,"inconclusive: 8.2 µM [rising, partial curve]",
Cc1oc2ccc(O)c(CN3CCCCC3)c2c1C(=O)Nc1cccc(C(F)(F)F)c1,"inconclusive: 14.6 µM [cytotoxic, single point]",
O=C(O)c1cn(-c2ccc(F)cc2)c(=O)c2ccccc12,"inconclusive: 29.1 µM [rising, single point]",
COc1ccc2c(c1OC)C(=O)N(c1nccs1)C2,"inconclusive: 32.6 µM [cytotoxic, partial curve, poor fit]",
COc1ccc(NC(=O)COC(=O)c2ccc(OC)c(S(=O)(=O)N3CCCC3)c2)cc1OC,,inactive: 19.1%
COc1ccc(S(=O)(=O)N[C@@H](CSCc2ccccc2)C(=O)O)cc1,"inconclusive: 25.9 µM [rising, partial curve, poor fit]",
CCOC(=O)C1CCCN(c2c(N3CCN(C)CC3)c(=O)c2=O)C1 (stereo not drawn),"inconclusive: 14.6 µM [rising, partial curve]",
COc1ccccc1CNS(=O)(=O)c1cccs1,"inconclusive: 20.6 µM [rising, single point]",
CN(CC(=O)Nc1ccccc1Br)C(=O)c1cccc(S(=O)(=O)N2CCc3ccccc32)c1,active: 18.4 µM,
O=C(Nc1cccc(Cl)c1)c1cnn2cccnc12,"inconclusive: 16.4 µM [cytotoxic, partial curve, poor fit]",
COc1ccc(-c2nc3c(s2)CCc2onc(-c4ccc(OC)cc4)c2-3)cc1,"inconclusive: 20.6 µM [cytotoxic, partial curve]",
CCCOc1ccc(NC(=O)CC2C(=O)N(c3ccc(OCC)cc3)C(=S)N2C2CC2)cc1 (stereo not drawn),"inconclusive: 5.8 µM [cytotoxic, full curve, poor fit]",
O=c1[nH]nnc2c1cnn2-c1ccccc1,"inconclusive: 18.4 µM [cytotoxic, single point]",
CCc1ccccc1OCC(=O)N1CCN(c2ncccn2)CC1,"inconclusive: 10.3 µM [cytotoxic, partial curve]",
OCC1OC(n2cnc3c(/C=C(\O)c4ccccc4)ncnc32)C(O)C1O (stereo not drawn),"inconclusive: 18.4 µM [cytotoxic, single point]",
COc1ccc(C)cc1NC(=O)CSc1nnc(COc2ccccc2)n1Cc1ccco1,"inconclusive: 29.1 µM [cytotoxic, single point]",
CCC(=O)N1CCc2cc(Br)cc(S(=O)(=O)NCc3ccccc3OC)c21,"inconclusive: 5.8 µM [cytotoxic, full curve]",
COCc1c(C(=O)OCC(=O)c2c(N)n(CC(C)C)c(=O)n(C)c2=O)oc2ccccc12,,inactive: -27.3%
CCC(C)(C(=O)NC1CCCC1)N(Cc1cccs1)C(=O)c1ccc2c(c1)OCO2 (stereo not drawn),"inconclusive: 9.2 µM [cytotoxic, partial curve]",

Structure (SMILES),Potency,"activity change, negative = cytotoxicity"
O=C1Nc2cc3c(cc2C1=O)sc1ccccc13,"inconclusive: 7.31 µM [cytotoxic, full curve, poor fit]",
O=C(CSc1nc2ccccc2c(=O)n1Cc1ccco1)c1ccc(F)cc1,,inactive: -14.2%
Cc1nn(C)c2c1c(C(F)(F)F)cc(=O)n2CC(=O)N1CCCCC1C (stereo not drawn),,inactive: -26%
CCC(=O)N(c1nnc(SCC(=O)NN2C(=O)NC3(CCC(C)CC3)C2=O)s1)C1CC1 (stereo not drawn),"inconclusive: 7.31 µM [rising, partial curve]",
Cc1ccc(Cl)cc1N1CCN(CC(=O)NC2CCCc3ccccc32)CC1 (stereo not drawn),"inconclusive: 23.1 µM [cytotoxic, single point]",
CN1CCN(C(=O)c2ccc(S(=O)(=O)N(C)c3ccccc3)cc2)CC1,,inactive: -12.5%
CCCN1C(=O)C2(OCCO2)c2cc(Cl)ccc21,"inconclusive: 29.1 µM [rising, single point]",
Cc1ccc(NC(=O)c2ocnc2C)cc1Cl,"inconclusive: 29.1 µM [cytotoxic, single point]",
Cc1nc2n(c(=O)c1CCN1CCC(c3noc4cc(F)ccc34)CC1)CCCC2,"inconclusive: 4.11 µM [cytotoxic, full curve]",
COc1ccc(Cn2nc(-c3ccccc3)c(N3CCCCC3)cc2=O)cc1,"inconclusive: 10.3 µM [cytotoxic, partial curve, poor fit]",
COc1cc(C(NC=O)C(=O)Nc2c(C)cccc2C)ccc1O (stereo not drawn),"inconclusive: 16.4 µM [rising, single point]",
Nc1c(Cl)cc(Cl)cc1C(=O)OCC(=O)N1CCCC1=O,"inconclusive: 7.31 µM [rising, partial curve, poor fit]",
OC[C@@H]1CN(Cc2cccs2)C[C@H](n2cnc3c(N4CCCC4)ncnc32)O1,,inactive: 2.78%
CCOc1cc(CNCCc2ccc(S(N)(=O)=O)cc2)cc(Cl)c1OCc1ccccc1,"inconclusive: 2.91 µM [cytotoxic, full curve]",
COc1ccc(C(CNC(=O)COc2ccccc2C)N2CCOCC2)cc1 (stereo not drawn),active: 18.4 µM,
O=S(=O)(c1cccc(-c2n[nH]c(=S)o2)c1)N1CCOCC1,,inactive: 20.7%
CC(=O)c1cccc(NC(=O)COC(=O)[C@@H](NC(=O)OCc2ccccc2)C(C)C)c1,,inactive: 0%
O=C(NCCNc1ccc([N+](=O)[O-])cc1C(F)(F)F)c1ccccc1,active: 16.4 µM,
c1ccc(-n2ncc3c(NCC4CCCO4)ncnc32)cc1 (stereo not drawn),"inconclusive: 35.5 µM [cytotoxic, single point]",
COc1cc(/C=C/C(=O)OCC(=O)N2c3ccccc3CC2C)cc(OC)c1OC (stereo not drawn),"inconclusive: 25.9 µM [cytotoxic, single point]",
CCOc1ccccc1NC(=S)N1CCN(c2nc(-c3ccc(F)cc3)cs2)CC1,,inactive: -9.36%
O=C(NCC1CCCN(C(=O)NCc2ccccc2)C1)c1ccc2c(c1)OCO2 (stereo not drawn),"inconclusive: 29.1 µM [cytotoxic, single point]",

# An excerpt from above in order of number of heavy atoms, high to low:
Structure (SMILES),Potency,"activity change, negative = cytotoxicity"
CCOc1cc(CNCCc2ccc(S(N)(=O)=O)cc2)cc(Cl)c1OCc1ccccc1,"inconclusive: 2.91 µM [cytotoxic, full curve]",
CC(=O)c1cccc(NC(=O)COC(=O)[C@@H](NC(=O)OCc2ccccc2)C(C)C)c1,,inactive: 0%
CCOc1ccccc1NC(=S)N1CCN(c2nc(-c3ccc(F)cc3)cs2)CC1,,inactive: -9.36%
O=C(NCC1CCCN(C(=O)NCc2ccccc2)C1)c1ccc2c(c1)OCO2 (stereo not drawn),"inconclusive: 29.1 µM [cytotoxic, single point]",
OC[C@@H]1CN(Cc2cccs2)C[C@H](n2cnc3c(N4CCCC4)ncnc32)O1,,inactive: 2.78%
Cc1nn(C)c2c1c(C(F)(F)F)cc(=O)n2CC(=O)N1CCCCC1C (stereo not drawn),,inactive: -26%
O=C(NCCNc1ccc([N+](=O)[O-])cc1C(F)(F)F)c1ccccc1,active: 16.4 µM,
COc1cc(C(NC=O)C(=O)Nc2c(C)cccc2C)ccc1O (stereo not drawn),"inconclusive: 16.4 µM [rising, single point]",
c1ccc(-n2ncc3c(NCC4CCCO4)ncnc32)cc1 (stereo not drawn),"inconclusive: 35.5 µM [cytotoxic, single point]",
O=S(=O)(c1cccc(-c2n[nH]c(=S)o2)c1)N1CCOCC1,,inactive: 20.7%
CCCN1C(=O)C2(OCCO2)c2cc(Cl)ccc21,"inconclusive: 29.1 µM [rising, single point]",
Cc1ccc(NC(=O)c2ocnc2C)cc1Cl,"inconclusive: 29.1 µM [cytotoxic, single point]",
